Laboratory results: the supplement of paper PMC11006884
This is a selection; strong and weak results do not stand in their true shares. The data scatter; read single values as rough.

By UniProt entry, the sequences of proteins in these tests, tags left out. Where a name states a change or a piece, a line headed by the entry shows the natural chain unless it says otherwise.
UniProt O43252: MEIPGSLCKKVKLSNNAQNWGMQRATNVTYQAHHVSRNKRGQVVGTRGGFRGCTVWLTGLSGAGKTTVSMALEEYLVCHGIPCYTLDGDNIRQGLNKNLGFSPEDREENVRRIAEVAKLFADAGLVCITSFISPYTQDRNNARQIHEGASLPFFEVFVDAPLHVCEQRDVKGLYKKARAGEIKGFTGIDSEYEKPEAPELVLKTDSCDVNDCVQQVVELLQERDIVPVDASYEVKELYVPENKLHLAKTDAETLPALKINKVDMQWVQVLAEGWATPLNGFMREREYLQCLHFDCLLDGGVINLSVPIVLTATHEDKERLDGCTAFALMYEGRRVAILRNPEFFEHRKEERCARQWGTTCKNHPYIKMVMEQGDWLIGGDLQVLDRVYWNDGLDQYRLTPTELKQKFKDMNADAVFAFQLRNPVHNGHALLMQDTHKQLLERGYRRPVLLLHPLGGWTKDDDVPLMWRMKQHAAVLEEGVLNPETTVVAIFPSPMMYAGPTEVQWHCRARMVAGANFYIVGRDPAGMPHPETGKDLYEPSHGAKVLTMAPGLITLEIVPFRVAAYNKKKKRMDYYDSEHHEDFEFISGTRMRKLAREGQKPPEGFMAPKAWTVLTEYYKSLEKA
UniProt O75665: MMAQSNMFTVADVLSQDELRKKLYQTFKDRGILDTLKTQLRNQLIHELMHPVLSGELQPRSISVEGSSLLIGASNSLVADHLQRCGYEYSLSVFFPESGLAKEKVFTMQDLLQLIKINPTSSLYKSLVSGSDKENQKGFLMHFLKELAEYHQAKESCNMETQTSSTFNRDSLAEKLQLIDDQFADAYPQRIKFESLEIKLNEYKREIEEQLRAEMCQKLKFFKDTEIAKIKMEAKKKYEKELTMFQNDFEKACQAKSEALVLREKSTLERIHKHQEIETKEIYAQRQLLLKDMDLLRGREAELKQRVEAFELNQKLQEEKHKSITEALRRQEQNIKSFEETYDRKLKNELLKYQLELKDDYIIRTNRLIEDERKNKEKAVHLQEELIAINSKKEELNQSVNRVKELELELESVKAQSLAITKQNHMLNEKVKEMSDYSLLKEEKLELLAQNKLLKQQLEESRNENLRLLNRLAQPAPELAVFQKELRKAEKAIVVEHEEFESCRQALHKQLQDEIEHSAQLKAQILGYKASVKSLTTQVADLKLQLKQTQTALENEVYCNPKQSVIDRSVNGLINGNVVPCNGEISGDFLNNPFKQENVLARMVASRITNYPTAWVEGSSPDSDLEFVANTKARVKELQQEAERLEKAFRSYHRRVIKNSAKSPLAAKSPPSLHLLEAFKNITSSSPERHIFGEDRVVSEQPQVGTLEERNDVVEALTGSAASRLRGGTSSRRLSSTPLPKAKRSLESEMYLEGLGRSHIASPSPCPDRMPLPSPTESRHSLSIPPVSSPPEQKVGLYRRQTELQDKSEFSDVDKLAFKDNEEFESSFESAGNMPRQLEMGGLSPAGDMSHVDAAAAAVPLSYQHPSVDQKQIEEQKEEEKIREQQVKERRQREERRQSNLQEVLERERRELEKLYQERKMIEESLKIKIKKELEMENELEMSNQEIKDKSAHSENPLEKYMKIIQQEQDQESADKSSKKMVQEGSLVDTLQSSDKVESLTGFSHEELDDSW
UniProt O60313: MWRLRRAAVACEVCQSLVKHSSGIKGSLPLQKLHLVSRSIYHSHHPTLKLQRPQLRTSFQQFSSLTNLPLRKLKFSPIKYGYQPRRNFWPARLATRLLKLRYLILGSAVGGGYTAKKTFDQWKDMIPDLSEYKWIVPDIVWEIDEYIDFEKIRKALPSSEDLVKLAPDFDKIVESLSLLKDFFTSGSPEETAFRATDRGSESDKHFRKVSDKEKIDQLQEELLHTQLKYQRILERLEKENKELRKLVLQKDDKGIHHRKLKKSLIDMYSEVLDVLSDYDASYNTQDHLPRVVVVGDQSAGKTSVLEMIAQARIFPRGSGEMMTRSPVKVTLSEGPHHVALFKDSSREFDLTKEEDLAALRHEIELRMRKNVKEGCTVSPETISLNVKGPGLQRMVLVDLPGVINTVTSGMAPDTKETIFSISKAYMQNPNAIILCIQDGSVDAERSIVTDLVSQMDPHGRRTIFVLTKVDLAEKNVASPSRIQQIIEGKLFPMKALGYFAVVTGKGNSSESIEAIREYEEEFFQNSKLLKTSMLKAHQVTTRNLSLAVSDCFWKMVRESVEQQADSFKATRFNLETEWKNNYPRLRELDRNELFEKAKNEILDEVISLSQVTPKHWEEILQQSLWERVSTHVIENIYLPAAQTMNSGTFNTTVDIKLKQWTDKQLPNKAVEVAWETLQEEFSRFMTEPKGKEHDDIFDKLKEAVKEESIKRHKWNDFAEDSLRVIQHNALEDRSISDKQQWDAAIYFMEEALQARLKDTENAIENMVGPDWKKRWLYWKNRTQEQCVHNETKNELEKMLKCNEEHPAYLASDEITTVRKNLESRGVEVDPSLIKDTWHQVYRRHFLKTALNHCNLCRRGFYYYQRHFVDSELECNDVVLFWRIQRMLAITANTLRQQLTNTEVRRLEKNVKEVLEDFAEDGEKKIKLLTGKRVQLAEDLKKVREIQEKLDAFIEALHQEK
UniProt O43290: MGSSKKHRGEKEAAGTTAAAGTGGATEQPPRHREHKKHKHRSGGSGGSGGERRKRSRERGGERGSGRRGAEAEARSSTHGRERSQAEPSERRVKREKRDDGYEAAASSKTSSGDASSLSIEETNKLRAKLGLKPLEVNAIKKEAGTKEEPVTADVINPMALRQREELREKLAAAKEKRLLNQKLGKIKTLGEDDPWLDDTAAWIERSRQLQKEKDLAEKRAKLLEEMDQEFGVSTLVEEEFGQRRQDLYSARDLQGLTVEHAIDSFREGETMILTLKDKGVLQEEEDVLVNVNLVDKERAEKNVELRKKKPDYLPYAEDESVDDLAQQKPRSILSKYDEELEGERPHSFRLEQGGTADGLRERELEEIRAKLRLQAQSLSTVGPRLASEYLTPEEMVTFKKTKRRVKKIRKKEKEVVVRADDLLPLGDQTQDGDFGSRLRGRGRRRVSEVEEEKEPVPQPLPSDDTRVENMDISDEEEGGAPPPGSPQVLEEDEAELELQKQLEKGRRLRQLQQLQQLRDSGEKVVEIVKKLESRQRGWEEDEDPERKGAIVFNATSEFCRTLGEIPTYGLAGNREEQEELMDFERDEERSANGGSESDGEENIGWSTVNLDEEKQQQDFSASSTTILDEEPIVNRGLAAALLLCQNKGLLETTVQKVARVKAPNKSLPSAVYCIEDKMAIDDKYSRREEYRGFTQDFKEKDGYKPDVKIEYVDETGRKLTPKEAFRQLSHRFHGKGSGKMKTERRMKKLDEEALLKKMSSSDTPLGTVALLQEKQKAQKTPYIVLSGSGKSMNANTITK
UniProt O75251, whole entry: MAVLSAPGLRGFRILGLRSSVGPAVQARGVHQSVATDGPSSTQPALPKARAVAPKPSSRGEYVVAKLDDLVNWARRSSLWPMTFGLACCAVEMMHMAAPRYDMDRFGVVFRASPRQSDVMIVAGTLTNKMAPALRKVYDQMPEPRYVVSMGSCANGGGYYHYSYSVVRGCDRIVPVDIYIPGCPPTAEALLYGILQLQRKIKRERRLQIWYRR
UniProt O43913: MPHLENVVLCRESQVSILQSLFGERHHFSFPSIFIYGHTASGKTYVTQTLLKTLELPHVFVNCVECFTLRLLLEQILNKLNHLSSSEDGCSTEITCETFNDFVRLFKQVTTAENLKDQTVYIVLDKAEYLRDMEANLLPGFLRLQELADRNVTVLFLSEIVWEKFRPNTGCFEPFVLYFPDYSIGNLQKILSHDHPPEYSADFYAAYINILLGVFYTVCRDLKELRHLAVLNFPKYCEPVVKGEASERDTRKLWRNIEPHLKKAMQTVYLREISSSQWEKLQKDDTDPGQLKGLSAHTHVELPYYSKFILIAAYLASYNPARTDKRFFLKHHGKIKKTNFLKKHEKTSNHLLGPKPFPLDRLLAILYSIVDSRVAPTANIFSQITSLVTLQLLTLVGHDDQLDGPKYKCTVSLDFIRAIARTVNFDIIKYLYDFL
UniProt O43264: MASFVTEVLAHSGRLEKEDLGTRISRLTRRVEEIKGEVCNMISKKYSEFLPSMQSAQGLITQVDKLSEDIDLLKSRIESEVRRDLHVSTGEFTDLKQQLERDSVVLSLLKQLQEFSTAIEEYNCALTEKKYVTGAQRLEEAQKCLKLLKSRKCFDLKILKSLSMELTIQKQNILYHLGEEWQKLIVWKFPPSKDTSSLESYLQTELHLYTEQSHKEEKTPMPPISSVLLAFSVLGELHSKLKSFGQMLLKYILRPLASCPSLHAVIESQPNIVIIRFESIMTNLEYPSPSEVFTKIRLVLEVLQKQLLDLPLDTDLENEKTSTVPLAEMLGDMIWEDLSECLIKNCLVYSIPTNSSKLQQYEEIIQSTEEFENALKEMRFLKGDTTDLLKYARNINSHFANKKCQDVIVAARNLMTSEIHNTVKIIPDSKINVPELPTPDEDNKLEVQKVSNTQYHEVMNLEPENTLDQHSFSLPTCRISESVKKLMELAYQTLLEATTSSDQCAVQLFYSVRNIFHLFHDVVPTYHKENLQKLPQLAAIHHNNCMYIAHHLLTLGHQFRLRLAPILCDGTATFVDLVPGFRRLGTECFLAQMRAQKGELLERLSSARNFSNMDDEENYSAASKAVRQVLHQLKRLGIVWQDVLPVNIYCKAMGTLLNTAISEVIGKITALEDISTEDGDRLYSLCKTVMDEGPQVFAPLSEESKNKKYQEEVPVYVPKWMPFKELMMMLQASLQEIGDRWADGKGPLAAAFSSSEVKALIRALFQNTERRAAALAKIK
UniProt O60828: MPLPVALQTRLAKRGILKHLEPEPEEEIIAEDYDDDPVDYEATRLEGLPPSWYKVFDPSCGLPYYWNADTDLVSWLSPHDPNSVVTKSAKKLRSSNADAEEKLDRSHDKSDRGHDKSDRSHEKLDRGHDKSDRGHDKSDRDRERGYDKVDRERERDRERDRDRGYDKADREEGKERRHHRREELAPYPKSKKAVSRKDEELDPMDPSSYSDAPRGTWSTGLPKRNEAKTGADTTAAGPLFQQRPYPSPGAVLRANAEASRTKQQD
UniProt O75223: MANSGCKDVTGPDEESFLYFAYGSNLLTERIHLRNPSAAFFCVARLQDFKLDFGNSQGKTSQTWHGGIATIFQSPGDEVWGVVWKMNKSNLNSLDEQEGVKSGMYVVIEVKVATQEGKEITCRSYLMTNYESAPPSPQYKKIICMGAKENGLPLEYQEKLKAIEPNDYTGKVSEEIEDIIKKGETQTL
UniProt O60343: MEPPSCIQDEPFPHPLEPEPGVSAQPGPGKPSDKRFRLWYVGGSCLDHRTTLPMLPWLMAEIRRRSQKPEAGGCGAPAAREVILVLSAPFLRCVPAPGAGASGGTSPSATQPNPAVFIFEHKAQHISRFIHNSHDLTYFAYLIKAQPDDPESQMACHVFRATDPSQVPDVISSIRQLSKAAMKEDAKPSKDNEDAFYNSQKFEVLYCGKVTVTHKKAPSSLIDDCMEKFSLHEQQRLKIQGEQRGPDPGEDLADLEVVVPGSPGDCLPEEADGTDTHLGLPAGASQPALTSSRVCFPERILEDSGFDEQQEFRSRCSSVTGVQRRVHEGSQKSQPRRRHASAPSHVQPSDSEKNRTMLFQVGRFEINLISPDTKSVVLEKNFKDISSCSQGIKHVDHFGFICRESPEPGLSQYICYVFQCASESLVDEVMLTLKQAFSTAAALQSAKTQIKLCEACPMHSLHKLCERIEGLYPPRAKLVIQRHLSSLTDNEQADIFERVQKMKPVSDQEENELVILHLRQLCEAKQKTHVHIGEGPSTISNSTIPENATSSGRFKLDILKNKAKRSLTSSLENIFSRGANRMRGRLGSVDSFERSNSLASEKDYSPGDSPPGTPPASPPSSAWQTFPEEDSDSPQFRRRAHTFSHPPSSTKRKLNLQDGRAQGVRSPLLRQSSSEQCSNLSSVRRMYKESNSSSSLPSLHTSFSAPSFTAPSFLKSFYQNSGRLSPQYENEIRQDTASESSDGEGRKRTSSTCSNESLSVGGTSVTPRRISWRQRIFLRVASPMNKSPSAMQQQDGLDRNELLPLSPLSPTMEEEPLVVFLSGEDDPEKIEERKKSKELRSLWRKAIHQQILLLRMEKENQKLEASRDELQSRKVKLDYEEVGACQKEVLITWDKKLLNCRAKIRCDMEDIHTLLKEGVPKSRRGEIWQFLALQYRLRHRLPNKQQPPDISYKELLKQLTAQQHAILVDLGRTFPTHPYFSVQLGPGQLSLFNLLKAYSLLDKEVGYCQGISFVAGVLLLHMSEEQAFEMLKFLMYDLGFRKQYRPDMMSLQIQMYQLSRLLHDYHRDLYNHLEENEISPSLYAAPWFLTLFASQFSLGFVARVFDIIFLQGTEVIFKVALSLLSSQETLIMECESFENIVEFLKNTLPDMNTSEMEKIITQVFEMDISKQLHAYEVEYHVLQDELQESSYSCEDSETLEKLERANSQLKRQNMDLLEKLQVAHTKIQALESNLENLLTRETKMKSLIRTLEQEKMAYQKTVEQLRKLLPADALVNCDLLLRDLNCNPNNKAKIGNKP

What follows are targets tested with COC(=O)/C=C/c1ccccc1 [methyl cinnamate] (assay: log2 ratio of iodoacetamide-alkyne labeling of the cysteine site, DMSO over compound (competition); higher = stronger covalent engagement of the cysteine by the compound, active = 1 or more). Details: 500 µM; treatment time 1 h; system: HEK293T cell lysate.
Summary of the method: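 For each cysteine, the log2 competition ratio is mean control-channel reporter intensity over mean compound-channel reporter intensity. HEK293T lysate (2 mg/mL) was exposed to vehicle or electrophile (500 µM, 1 h, ambient temperature), labelled with iodoacetamide alkyne (1 h), clicked to sCIP-TMT reagents, digested overnight with trypsin at 37 °C, streptavidin-enriched and analysed by Orbitrap Eclipse LC-MS/MS with FAIMS and FragPipe. Cysteines quantified in only one of three replicates, each with duplicate channels, were excluded.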

log2 ratio of iodoacetamide-alkyne labeling, inactive:
SNRNP200 C502 (UniProt O75643) 0.0312
KIF1B C1661 (UniProt O60333) 0.218
NPM3 C105 (UniProt O75607) 0.0963
NUP155 C974 (UniProt O75694) 0.422
PAPSS1 C165 (UniProt O43252) 0.00865
OFD1 C581 (UniProt O75665) -0.046
KIN C212 (UniProt O60870) 0.348
PAPSS1 C207 (UniProt O43252) 0.253
OPA1 C375 (UniProt O60313) 0.191
ATP6V1G1 C69 (UniProt O75348) 0.299
UniProt O75879_C228 -0.21
LRCH4 C105 (UniProt O75427) 0.256
OPA1 C786 (UniProt O60313) 0.226
ROCK2 C649 (UniProt O75116) 0.4
SART1 C645 (UniProt O43290) 0.0313
MGRN1 C428 (UniProt O60291) -0.118
UniProt O43432_C461 0.214
BUB1 C339 (UniProt O43683) -0.116
RECQL4 C208 (UniProt O94761) 0.727
IDH3B C233 (UniProt O43837) 0.277
XPOT C650 (UniProt O43592) 0.127
TACC1 C174 (UniProt O75410) 0.242
NDUFS7 C183 (UniProt O75251) -0.198
UniProt O43913_C10 0.189
SF3B1 C933 (UniProt O75533) 0.183
RSL1D1 C211 (UniProt O76021) 0.115
ZW10 C568 (UniProt O43264) 0.228
PQBP1 C60 (UniProt O60828) 0.26
FLNB C2248 (UniProt O75369) -0.613
GGCT C6 (UniProt O75223) 0.127
SRP72 C349 (UniProt O76094) -0.356
TBC1D4 C266 (UniProt O60343) 0.579
TBC1D4 C1286 (UniProt O60343) 0.184
SNRNP200 C428 (UniProt O75643) 0.131
UniProt O60610_C796 -0.0149
UniProt O60232_C53 0.238
RNF40 C950 (UniProt O75150) 0.385
KPNA6 C467 (UniProt O60684) 0.141

A portion from the list above, as a working copy:
log2 ratio of iodoacetamide-alkyne labeling, inactive:
NUP155 C974 (UniProt O75694) 0.422
PAPSS1 C165 (UniProt O43252) 0.00865
OFD1 C581 (UniProt O75665) -0.046
KIN C212 (UniProt O60870) 0.348
PAPSS1 C207 (UniProt O43252) 0.253
OPA1 C375 (UniProt O60313) 0.191
ATP6V1G1 C69 (UniProt O75348) 0.299
